No constants are given. Whether binding was seen depends on the method and setting. Some binding calls cover weakened binding; strength is not graded here.
Key:
[1] = target: Xenopus laevis PRMT5 (Xenopus laevis) (UniProt Q6NUA1); test: SEC-MALS; 15 µg PRMT5 and MEP50 in 20 mM ADA pH 6.5, 250 mM NaCl, 10% glycerol, 5 mM DTT; WTC030N5 column; both purified
[2] = target: Xenopus laevis PRMT5 (Xenopus laevis) (UniProt Q6NUA1); test: crystal structure; XlPRMT5-MEP50 co-crystallised with 1 mM SAH; 30%–40% MPD, 100 mM Bis-Tris pH 5.5, 18°C; 3.0 Å; both purified
[3] = target: Xenopus laevis PRMT5 (Xenopus laevis) (UniProt Q6NUA1); test: FPLC-SAXS; in-line small-angle X-ray scattering over the gel-filtration peak; curve fitted to the crystal structure with CRYSOL; both purified
[4] = target: Xenopus laevis PRMT5 (Xenopus laevis) (UniProt Q6NUA1); test: AUC; sedimentation equilibrium (0.23, 0.77 and 0.9 µM tetramer) and velocity (0.97 µM); 20 mM ADA pH 6.5, 250 mM NaCl, 10% glycerol, 5 mM DTT, 20°C; also run in 2 M NaCl with no change in mass; both purified

Chains of the proteins cited; added tags and fusions are not shown.
UniProt Q6NUA1: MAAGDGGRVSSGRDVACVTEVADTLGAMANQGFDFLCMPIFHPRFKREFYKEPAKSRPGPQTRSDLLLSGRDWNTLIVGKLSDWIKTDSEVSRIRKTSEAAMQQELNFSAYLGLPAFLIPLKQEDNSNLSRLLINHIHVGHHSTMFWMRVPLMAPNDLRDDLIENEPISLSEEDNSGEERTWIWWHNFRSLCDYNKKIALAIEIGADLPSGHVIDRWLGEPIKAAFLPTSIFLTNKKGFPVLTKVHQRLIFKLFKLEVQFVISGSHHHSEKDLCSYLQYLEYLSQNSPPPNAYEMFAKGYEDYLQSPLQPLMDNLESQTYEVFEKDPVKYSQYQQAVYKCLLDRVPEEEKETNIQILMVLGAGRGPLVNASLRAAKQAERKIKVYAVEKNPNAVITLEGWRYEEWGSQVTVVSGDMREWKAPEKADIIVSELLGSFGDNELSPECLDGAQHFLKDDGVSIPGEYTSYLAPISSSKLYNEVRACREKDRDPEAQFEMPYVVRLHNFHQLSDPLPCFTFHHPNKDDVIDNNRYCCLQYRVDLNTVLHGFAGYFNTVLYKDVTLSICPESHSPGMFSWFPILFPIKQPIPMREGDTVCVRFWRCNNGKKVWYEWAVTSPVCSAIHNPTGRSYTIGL

Measured: binding

B1: Xenopus laevis MEP50 (co-expressed with PRMT5) (protein, UniProt Q6NUD0 1-333)
chain: MSKGSAWGRPVTAPACMEVQIGAVRYRRDGALLLAASSLSSRTWGGSIWVFKDPEGAPNESLCTAGVQTEAGVTDVAWVSEKGILVASDSGAVELWEILEKESLLVNKFAKYEHDDIVKTLSVFSDGTQAVSGGKDFSVKVWDLSQKAVLKSYNAHSSEVNCVAACPGKDTIFLSCGEDGRILLWDTRKPKPATRIDFCASDTIPTSVTWHPEKDDTFACGDETGNVSLVNIKNPDSAQTSAVHSQNITGLAYSYHSSPFLASISEDCTVAVLDADFSEVFRDLSHRDFVTGVAWSPLDHSKFTTVGWDHKVLHHHLPSEGRTENLIATKAED
binds: all assays above
